Test results from doi:10.1101/2021.05.03.442316.
Results are given in words; binding and its absence hold for the method and conditions named. In cells and extracts the contact can be indirect. Some entries that bind do so weakly or less than the wild type.

By UniProt entry, the sequences of proteins in these tests, tags left out. Where a name states a change or a piece, a line headed by the entry shows the natural chain unless it says otherwise. Chains listed by the source or under a name are the forms on record and can include a tag or linker.
UniProt Q64131: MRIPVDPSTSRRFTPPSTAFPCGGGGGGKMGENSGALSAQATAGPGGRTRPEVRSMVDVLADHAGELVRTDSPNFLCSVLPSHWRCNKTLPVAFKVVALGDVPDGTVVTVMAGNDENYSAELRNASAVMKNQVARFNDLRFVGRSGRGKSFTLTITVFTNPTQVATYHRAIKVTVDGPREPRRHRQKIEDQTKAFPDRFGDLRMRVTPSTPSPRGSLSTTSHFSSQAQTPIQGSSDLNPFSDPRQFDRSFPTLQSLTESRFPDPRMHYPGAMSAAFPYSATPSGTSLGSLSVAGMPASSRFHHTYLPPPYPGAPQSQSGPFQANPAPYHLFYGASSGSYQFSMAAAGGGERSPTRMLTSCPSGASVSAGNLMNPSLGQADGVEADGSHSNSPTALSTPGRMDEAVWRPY
RUNX3 (P1) (Q13761-2, form named): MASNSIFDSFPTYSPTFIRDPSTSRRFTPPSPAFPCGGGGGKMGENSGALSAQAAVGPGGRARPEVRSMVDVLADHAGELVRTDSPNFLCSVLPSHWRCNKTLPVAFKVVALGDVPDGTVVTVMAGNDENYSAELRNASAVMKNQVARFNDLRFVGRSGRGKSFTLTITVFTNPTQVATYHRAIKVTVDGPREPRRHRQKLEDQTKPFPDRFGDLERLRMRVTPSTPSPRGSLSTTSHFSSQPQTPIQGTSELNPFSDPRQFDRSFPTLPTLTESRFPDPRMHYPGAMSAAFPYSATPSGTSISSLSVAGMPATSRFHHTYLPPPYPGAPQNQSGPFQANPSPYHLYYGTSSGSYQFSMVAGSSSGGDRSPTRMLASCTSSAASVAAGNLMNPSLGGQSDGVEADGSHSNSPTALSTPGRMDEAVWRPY
UniProt P02340: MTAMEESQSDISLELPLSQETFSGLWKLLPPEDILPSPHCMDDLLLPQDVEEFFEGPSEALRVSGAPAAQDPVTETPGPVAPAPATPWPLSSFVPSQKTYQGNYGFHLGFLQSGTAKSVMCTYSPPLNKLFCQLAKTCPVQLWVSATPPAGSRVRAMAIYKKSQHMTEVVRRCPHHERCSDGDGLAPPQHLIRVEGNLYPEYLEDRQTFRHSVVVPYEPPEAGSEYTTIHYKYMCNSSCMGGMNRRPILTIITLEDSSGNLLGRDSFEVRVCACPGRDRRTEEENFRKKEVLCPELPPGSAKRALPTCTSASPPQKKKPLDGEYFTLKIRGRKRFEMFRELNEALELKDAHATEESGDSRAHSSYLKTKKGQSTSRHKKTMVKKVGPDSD

What was measured:
[1] = biological target: human wild-type p53 (human) (UniProt P04637); assay: co-IP
[2] = biological target: Runx3 (endogenous mouse Runx3) (mouse (endogenous in mOS1-1 and ST2)) (UniProt Q64131); assay: co-IP

binding [1]	binding [2]	Substance
binds		RUNX3 (P1) (from UniProt Q13761-2 1-429)
	binds	p53 (endogenous mouse p53) (from UniProt P02340 1-390)
